Laboratory results from the supplement of paper PMC10331698.
± gives the standard deviation of the averaged measurements. Small differences around the control level are noise.

Assays:
Experiment in all cases: level (log10 ratio to DMSO vehicle control); higher = higher biomarker level / cell amount than vehicle control
[1] = compound: C=CC(=O)OCC(F)(F)C(F)(F)C(F)(F)COC(=O)C=C [1H,1H,5H,5H-Perfluoro-1,5-pentanediol diacrylate]; conditions: 2200 nM; in DMSO
Procedure: (§1)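 BioMAP Diversity Plus panel of 12 human primary cell co-culture systems (3C, 4H, LPS, SAg, BT, BF4T, BE3C, CASM3C, HDF3CGF, KF3CT, MyoF, Mphg). Compounds were added 1 h before stimulation and left for 24 h (MyoF 48 h; BT 72 h for soluble read-outs or 6 d for IgG). Biomarkers were read by ELISA, cytotoxicity by SRB, PBMC viability and proliferation by Alamar Blue. Each well value was divided by the mean of 8 DMSO control wells on the same plate and log10 transformed; duplicate blinded samples were tested at 4 concentrations.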

[2] = compound: C=CC(=O)OCCC(F)(F)C(F)(F)C(F)(F)C(F)(F)C(F)(F)C(F)(F)C(F)(F)C(F)(F)F [8:2 Fluorotelomer acrylate]; conditions: 2200 nM; in DMSO
Procedure: as §1

[3] = compound: C=CC(=O)OCCC(F)(F)C(F)(F)C(F)(F)C(F)(F)F [2-(Perfluorobutyl)ethyl acrylate]; conditions: 2200 nM; in DMSO
Procedure: as §1

[4] = compound: FC(F)(F)C(F)(C(F)(F)F)C(F)(F)C(F)(F)CC1CO1 [3-(Perfluoro-3-methylbutyl)-1,2-propenoxide]; conditions: in DMSO
Procedure: as §1

[5] = compound: FC(F)(F)C(F)(F)C(F)(F)C(F)(F)C(F)(F)C(F)(F)I [Perfluoro-1-iodohexane]; conditions: in DMSO
Procedure: as §1

[6] = compound: FC(F)(I)C(F)(F)C(F)(F)C(F)(F)C(F)(F)C(F)(F)I [1,6-Diiodoperfluorohexane]; conditions: 2200 nM; in DMSO
Procedure: as §1

[7] = compound: O=C(Cl)C(F)(F)C(F)(F)C(F)(F)C(=O)Cl [Hexafluoroglutaryl chloride]; conditions: 2200 nM; in DMSO
Procedure: as §1

[8] = compound: O=C(O)C(F)(F)C(F)(F)C(F)(F)C(F)(F)C(F)(F)C(F)(F)C(F)(F)C(F)(F)C(F)(F)C(F)(F)C(F)(F)C(F)(F)C(F)(F)F [Perfluorotetradecanoic acid]; conditions: in DMSO
Procedure: as §1

[9] = compound: O=C(O)C=C(C(F)(F)F)C(F)(F)F [3,3-Bis(trifluoromethyl)-2-propenoic acid]; conditions: in DMSO
Procedure: as §1

[10] = compound: O=S(=O)(O)C(F)(F)C(F)(F)C(F)(F)C(F)(F)C(F)(F)C(F)(F)F [Perfluorohexanesulfonic acid]; conditions: 2200 nM; in DMSO
Procedure: as §1

[11] = compound: O=S(=O)(O)CCC(F)(F)C(F)(F)C(F)(F)C(F)(F)F [4:2 Fluorotelomer sulfonic acid]; conditions: 2200 nM; in DMSO
Procedure: as §1

[12] = compound: OCC(F)(F)C(F)(F)C(F)(F)CO [Hexafluoroamylene glycol]; conditions: 2200 nM; in DMSO
Procedure: as §1

[13] = compound: OCCCC(F)(F)C(F)(F)C(F)(F)C(F)(F)C(F)(F)C(F)(F)C(F)(F)F [7:3 Fluorotelomer alcohol]; conditions: 2200 nM; in DMSO
Procedure: as §1

Row | Test System | level (log10) [1] | level (log10) [2] | level (log10) [3] | level (log10) ([4]; 740 nM) | level (log10) ([4]; 2200 nM) | level (log10) ([5]; 2200 nM) | level (log10) ([5]; 6700 nM) | level (log10) ([5]; 20000 nM) | level (log10) ([5]; 60000 nM) | level (log10) [6] | level (log10) [7] | level (log10) ([8]; 740 nM) | level (log10) ([8]; 2200 nM) | level (log10) ([9]; 2200 nM) | level (log10) ([9]; 6700 nM) | level (log10) ([9]; 20000 nM) | level (log10) ([9]; 60000 nM) | level (log10) [10] | level (log10) [11] | level (log10) [12] | level (log10) [13]
1 | BF4T:IL-1alpha | 0.0155 ± 0.013 | 0.0265 ± 0.015 | 0.0055 ± 0.029 | 0.0105 ± 0.026 | -0.003 ± 0.0042 | -0.004 ± 0.017 | -0.0075 ± 0.005 | -0.0065 ± 0.012 | -0.004 ± 0.0057 | 0.012 ± 0.025 | -0.012 ± 0.037 | 0.0045 ± 0.028 | -0.008 ± 0.0057 | 0.014 ± 0.02 | -0.009 ± 0.0057 | -0.003 ± 0.0085 | -0.0065 ± 0.035 | 0.003 ± 0.023 | 0.002 ± 0.041 | 0.0095 ± 0.025 | -0.0005 ± 0.005
2 | BF4T:uPA | 0.0015 ± 0.022 | -0.0195 ± 0.052 | 0.0135 ± 0.076 | -0.0065 ± 0.0035 | -0.0045 ± 0.0092 | -0.014 | -0.0075 ± 0.013 | -0.016 ± 0.024 | -0.0165 ± 0.0035 | 0.016 ± 0.014 | -0.0105 ± 0.012 | 0.0195 ± 0.028 | 0.0055 ± 0.00071 | -0.0145 ± 0.00071 | -0.0175 ± 0.0078 | -0.0195 ± 0.012 | -0.0135 ± 0.013 | 0.007 ± 0.02 | 0.001 ± 0.017 | 0.009 ± 0.018 | -0.0205 ± 0.012
3 | BE3C:PAI-I | 0.034 ± 0.047 | -0.0135 ± 0.047 | 0.01 ± 0.017 | 0.004 ± 0.02 | -0.0015 ± 0.019 | -0.0225 ± 0.046 | -0.0245 ± 0.04 | -0.0045 ± 0.025 | 0.006 ± 0.037 | 0.03 ± 0.03 | -0.011 ± 0.031 | 0.0095 ± 0.0092 | 0.0265 ± 0.026 | -0.022 ± 0.034 | -0.043 ± 0.0042 | -0.0315 ± 0.005 | -0.0085 ± 0.032 | 0.0045 ± 0.025 | 0.0105 ± 0.0078 | -0.0185 ± 0.021 | -0.0635 ± 0.016
4 | BT:sIL-17F | -0.399 ± 0.12 | 0.025 ± 0.098 | -0.099 ± 0.058 | -0.0545 ± 0.057 | 0.0525 ± 0.07 | -0.012 ± 0.016 | 0.0035 ± 0.015 | 0.041 ± 0.12 | 0.0815 ± 0.061 | 0.0515 ± 0.087 | 0.031 ± 0.1 | -0.0035 ± 0.033 | 0.051 ± 0.089 | -0.146 ± 0.15 | -0.258 ± 0.031 | -0.426 ± 0.16 | -0.672 ± 0.021 | -0.0895 ± 0.1 | -0.0075 ± 0.047 | -0.035 ± 0.0071 | 0.035 ± 0.098
5 | lMphg:CD69 | -0.006 ± 0.034 | -0.0365 ± 0.047 | 0.0085 ± 0.015 | -0.014 ± 0.014 | -0.013 ± 0.0014 | -0.035 ± 0.067 | -0.031 ± 0.048 | -0.0425 ± 0.06 | -0.031 ± 0.045 | 0.0075 ± 0.047 | -0.008 ± 0.016 | 0.008 ± 0.061 | -0.052 ± 0.03 | -0.057 ± 0.034 | -0.069 ± 0.024 | -0.0915 ± 0.0078 | -0.0275 ± 0.067 | 0.006 ± 0.03 | 0 ± 0.0014 | -0.037 ± 0.028 | -0.014 ± 0.024
6 | MyoF:alpha-SM Actin | -0.0195 ± 0.0021 | 0.02 ± 0.083 | -0.0015 ± 0.0021 | 0.0025 ± 0.033 | -0.0095 ± 0.022 | 0 ± 0.055 | -0.073 ± 0.021 | -0.173 ± 0.086 | -0.38 ± 0.0092 | -0.114 ± 0.027 | 0.037 ± 0.017 | 0.01 ± 0.069 | 0.02 ± 0.017 | 0.005 ± 0.055 | -0.003 ± 0.054 | -0.01 ± 0.067 | -0.0795 ± 0.044 | 0.0055 ± 0.0078 | -0.008 ± 0.042 | -0.0125 ± 0.073 | 0.0295 ± 0.022
7 | 4H:CD62P/P-selectin | 0.0175 ± 0.036 | -0.039 ± 0.0028 | -0.0105 ± 0.018 | -0.0235 ± 0.059 | 0.011 ± 0.041 | 0.0445 ± 0.086 | 0.034 ± 0.028 | -0.012 ± 0.11 | 0.0625 ± 0.14 | -0.029 ± 0.024 | -0.019 ± 0.0085 | -0.003 ± 0.018 | -0.005 ± 0.014 | 0.0165 ± 0.012 | 0.005 ± 0.0042 | -0.0505 ± 0.022 | -0.164 ± 0.028 | 0.0155 ± 0.022 | -0.012 ± 0.02 | -0.049 ± 0.062 | 0.0525 ± 0.049
8 | KF3CT:CXCL9/MIG | -0.006 ± 0.0057 | 0.0045 ± 0.0035 | -0.014 ± 0.024 | -0.004 ± 0.028 | -0.0075 ± 0.0092 | 0 ± 0.0085 | -0.002 | -0.0125 ± 0.00071 | 0.0025 ± 0.012 | -0.002 ± 0.0085 | 0.0155 ± 0.00071 | -0.001 ± 0.0028 | 0.0015 ± 0.0035 | 0.008 ± 0.0085 | 0.0015 ± 0.005 | -0.003 ± 0.0085 | 0.006 ± 0.011 | 0.003 ± 0.014 | 0.0075 ± 0.016 | 0.004 ± 0.0085 | -0.0015 ± 0.0064
9 | CASM3C:HLA-DR | 0.0025 ± 0.005 | 0.003 ± 0.054 | -0.027 ± 0.037 | -0.008 ± 0.0099 | -0.014 ± 0.0057 | 0.0255 ± 0.019 | 0.0075 ± 0.0092 | 0.004 ± 0.0057 | 0.0095 ± 0.022 | -0.0115 ± 0.025 | 0.006 ± 0.025 | -0.0055 ± 0.032 | -0.0205 ± 0.018 | -0.0765 ± 0.071 | -0.121 ± 0.0028 | -0.167 ± 0.0085 | -0.181 ± 0.067 | 0.007 ± 0.03 | 0.0165 ± 0.0035 | -0.0165 ± 0.016 | 0.0155 ± 0.012
10 | MyoF:Collagen I | 0.004 ± 0.0042 | -0.0035 ± 0.005 | -0.006 ± 0.05 | -0.0015 ± 0.0078 | -0.001 ± 0.0042 | -0.022 ± 0.011 | -0.0295 ± 0.019 | -0.062 ± 0.04 | -0.246 ± 0.094 | -0.028 ± 0.025 | -0.0075 ± 0.013 | 0.023 ± 0.0042 | 0.0155 ± 0.011 | -0.0155 ± 0.016 | -0.031 ± 0.0057 | -0.046 ± 0.021 | -0.055 ± 0.04 | 0.006 ± 0.045 | 0.009 ± 0.011 | -0.0055 ± 0.033 | 0.003 ± 0.0099
11 | 3C:CXCL8/IL-8 | 0.018 ± 0.03 | 0.0235 ± 0.061 | -0.006 ± 0.04 | 0.001 ± 0.018 | -0.0095 ± 0.015 | 0.0055 ± 0.012 | -0.014 ± 0.064 | -0.01 ± 0.065 | 0.0365 ± 0.079 | 0.023 ± 0.033 | 0.033 ± 0.027 | 0.0075 ± 0.037 | -0.019 ± 0.011 | 0.032 ± 0.038 | 0.038 ± 0.02 | 0.0255 ± 0.04 | 0.061 ± 0.071 | -0.0065 ± 0.018 | 0.016 ± 0.016 | -0.006 ± 0.1 | 0.014 ± 0.034
12 | BF4T:CD54/ICAM-1 | -0.047 ± 0.02 | 0.0015 ± 0.023 | -0.01 ± 0.033 | -0.0035 ± 0.016 | -0.021 ± 0.023 | 0.0055 ± 0.011 | -0.004 ± 0.0057 | 0.0045 ± 0.013 | 0 ± 0.0057 | -0.0155 ± 0.012 | 0.0215 ± 0.019 | 0.0115 ± 0.0035 | -0.0035 ± 0.005 | -0.0085 ± 0.022 | -0.0195 ± 0.005 | -0.0205 ± 0.005 | -0.0075 ± 0.013 | -0.0025 ± 0.0035 | 0.0195 ± 0.03 | 0.015 ± 0.028 | -0.0035 ± 0.012

Taken from above:
In level (log10) ([9]; 60000 nM), KF3CT:CXCL9/MIG shows 0.006 ± 0.011
In level (log10) [11], BF4T:CD54/ICAM-1 shows 0.0195 ± 0.03
